Measured values: patent US10364249B2, “Azatriangulenium salts as PET-quenched fluorescent probes” (KØBENHAVNS UNIVERSITET, priority 2013, dated 2019)

Test: Absorption and emission spectra, photophysical properties of pH-responsive triangulenium dyes in solution
Assay type: physicochemical
Settings: PBS solution, emission spectra at various pH
Experimental: Absorption and emission spectrum of the prepared triangulenium compounds of Formula (I) were measured and their photophysical properties are compiled in table 2.
pKa is −log10 of the acid dissociation constant, Ka, and is a quantitative measure of the strength of an acid in solution. λmax denotes the wavelength wherein maximum absorption is obtained. λem denotes the wavelength wherein maximum emission is obtained. φfl-on and φfl-off are the fluorescence quantum yields, wherein the responsive fluorescent compounds are in their on-state (not quenched) and off-state (quenched), respectively. Ion/Ioff is the ratio between φfl-on and φfl-off.
All disclosed absorption and emission spectrum measurement shown herein are measured as follows:
Emission spectroscopy was performed in front-face set-up for sensor spot samples and in a conventional L-shape set-up for measuremetns in solution. A Perkin-Elmer LS50B and a Horiba Fluorolog 3 were used interchangeably. Intensity based sensor measurements were only performed on the LS50B platform. Fluorescence lifetime based sensor measurements were only performed on the Fluorolog 3. Absorption spectroscopy was performed on a Perkin Elmer Lambda1050, with integrating sphere (for sensor spots) and with a 3-detector module for solution samples.

Structure (SMILES): c1cc2oc3cccc4c3[c+]3c2c(c1)oc1cccc(c13)n4CCCN1CCOCC1 [Compound 3a, 4-(3-morpholinopropyl)-4-aza-8,12-dioxa-4,8,12,12c-tetrahydro-dibenzo[cd,mn]-pyrenylium]
- pH range that can be determined reliably (ratiometric principle): 3 to 10
